Reference: PubChem BioAssay AID652272 (Drosophila RNAi Screening Center, 2013)
The screen tested about 21,000 reagents; below is a random part of those with a known target gene and a result. Over the whole deposit, 503 (2.4%) are marked active. 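Raw plate light values, not normalised; calls rest on replicate z-scores that were not deposited; hits include reporter decreases as well as increases.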 Entries without a mark were called inactive. Names joined by + are all predicted targets of the reagent. The record does not give: the amount of reagent, the time to read-out.

- Assay: 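Genome-wide knock-down search for components of Hedgehog signalling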 (primary screen)
- System: Drosophila clone 8 (Cl8) cells
- Knock-down reagent: long dsRNA against Drosophila genes
- Measurement: 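Plate reader light from a firefly reporter under a ptc promoter fragment that responds to Hedgehog, with Renilla light as transfection reference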
- Scale: firefly Hh reporter signal: higher = more ptc reporter light; Renilla reference signal: higher = more Renilla control light
- Hit rule: 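Hit when the z-score averaged over two replicates is under -2 or over +3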
- Meaning of the calls: active = hit: reporter lowered or raised; inactive = not a hit

The first 6 entries as a preview:
| target gene | DRSC id | firefly Hh reporter signal, replicate 1 | firefly Hh reporter signal, replicate 2 | firefly Hh reporter signal, replicate 3 | Renilla reference signal, replicate 1 | Renilla reference signal, replicate 2 |
| --- | --- | --- | --- | --- | --- | --- |
| mbl | DRSC05657 | 5.73e5 | 1.25e5 | 86521 | 4376 | 4007 |
| mbl | DRSC06449 | 59173 | 62660 | – | 3505 | 2689 |
| mbl | DRSC07651 | 51830 | 19905 | – | 1562 | 1629 |
| CG42686 (retired record) | DRSC15247 | 23804 | 2.19e5 | – | 1062 | 13241 |
| CG42686 (retired record) | DRSC15248 | 5.31e5 | 1.03e5 | – | 28584 | 3430 |
| Tsf1 | DRSC20296 | 1.01e5 | 4.16e5 | – | 1735 | 14985 |

Main list, repeating the preview:
| target gene | DRSC id | firefly Hh reporter signal, replicate 1 | firefly Hh reporter signal, replicate 2 | firefly Hh reporter signal, replicate 3 | Renilla reference signal, replicate 1 | Renilla reference signal, replicate 2 |
| --- | --- | --- | --- | --- | --- | --- |
| mbl | DRSC05657 | 5.73e5 | 1.25e5 | 86521 | 4376 | 4007 |
| mbl | DRSC06449 | 59173 | 62660 | – | 3505 | 2689 |
| mbl | DRSC07651 | 51830 | 19905 | – | 1562 | 1629 |
| CG42686 (retired record) | DRSC15247 | 23804 | 2.19e5 | – | 1062 | 13241 |
| CG42686 (retired record) | DRSC15248 | 5.31e5 | 1.03e5 | – | 28584 | 3430 |
| Tsf1 | DRSC20296 | 1.01e5 | 4.16e5 | – | 1735 | 14985 |
| Acf | DRSC14101 | 69395 | 94469 | – | 1722 | 2944 |
| CG11693 | DRSC14353 | 74053 | 85780 | – | 1312 | 2470 |
| Tusp | DRSC15838 | 76642 | 98476 | – | 1785 | 2568 |
| Ugt35E2 | DRSC16083 | 43493 | 1.15e5 | – | 1660 | 3285 |
| su(w[a]) | DRSC18840 | 69154 | 70625 | – | 1170 | 2498 |
| CG18731 | DRSC15377 | 1.01e5 | 1.20e5 | – | 3344 | 3113 |
| CG32119 | DRSC09248 | 7.65e5 | 4.00e5 | 1.47e5 | 6697 | 9050 |
| Ih | DRSC05477 | 1.68e5 | 3.69e5 | – | 4000 | 14258 |
| Ih | DRSC07445 | 99765 | 54508 | – | 4355 | 2802 |
| CG31253 + CG31131 | DRSC13839 | 51669 | 1.69e5 | – | 13392 | 4012 |
| RpL11 | DRSC07537 | 22557 (active) | 21561 | – | 2212 | 1779 |
| CG32276 | DRSC08027 | 1.24e5 | 2.66e5 | – | 3975 | 10310 |
| Cyp316a1 | DRSC11130 | 63075 | 36695 | – | 6825 | 2861 |
| mrva | DRSC11009 | 1.41e5 | 6.73e5 | 1.16e5 | 5756 | 38198 |
| CG7460 | DRSC10850 | 94592 | – | – | 2489 | 2792 |
| CG15927 | DRSC19742 | 1.08e5 | 2.54e5 | – | 3179 | 9740 |
| trr | DRSC18845 | 58625 | 77878 | – | 1180 | 1667 |
| CG2611 | DRSC02710 | 1.20e5 | 72005 | – | 4184 | 2809 |
| puf | DRSC15875 | 2.48e5 | 25063 | – | 15965 | 1065 |
| CR30374 | DRSC05080 | 1.26e5 | 2.36e5 | – | 3584 | 12168 |
| beat-IIIb | DRSC02435 | 1.40e5 | 63538 | – | 3595 | 5597 |
| CG14326 | DRSC14805 | 93638 | 75382 | – | 2257 | 265 |
| CG16753 | DRSC08489 | 1.45e5 | 84885 | – | 4613 | 2758 |
| Jon65Aiv | DRSC10644 | 75714 | 85878 | – | 8264 | 6513 |
| Lcp1 | DRSC07455 | 1.06e5 | 69712 | – | 2491 | 5212 |
| CG17738 | DRSC15257 | 68861 | 1.18e5 | – | 2183 | 3260 |
| COX6CL | DRSC00895 | 5.97e5 | 1.65e5 | – | 28114 | 7731 |
| bur | DRSC03163 | 94547 | 77286 | – | 3478 | 2905 |
| Spase25 | DRSC19776 | 1.06e5 | 82596 | – | 2544 | 1995 |
| CG4042 | DRSC11751 | 92074 | 92620 | – | 3524 | 2976 |
| RnpS1 | DRSC15154 | 81712 | 52370 | – | 4454 | 2868 |
| TwdlD | DRSC14738 | 72130 | 82108 | – | 2080 | 2594 |
| CG17672 | DRSC09230 | 46473 | – | – | 1636 | – |
| CG17672 | DRSC10278 | 1.73e5 | 71611 | – | 6384 | 2051 |
| CG31636 | DRSC02276 | 72049 | 50983 | – | 1827 | 4588 |
| CG1316 | DRSC08304 | 90598 | 43189 | – | 2384 | 747 |
| IKKepsilon | DRSC03550 | 67795 | 56482 | – | 1724 | 5912 |
| B9d1 | DRSC14993 | 1.06e5 | 1.56e5 | – | 3680 | 4523 |
| CG33631 | DRSC12763 | 1.97e5 | – | – | 3569 | – |
| CG31051 | DRSC15034 | 1.64e5 | 99179 | – | 3418 | 2311 |
| CG3071 | DRSC18526 | 1.42e5 | 1.24e5 | – | 3931 | 4349 |
| CecA2 | DRSC16604 | 80023 | 1.15e5 | – | 2283 | 3339 |
| RpS17 | DRSC11271 | 30496 (active) | 11523 | 28664 | 4600 | 3552 |
| GluRIID | DRSC16723 | 5.58e5 | 85368 | – | 30717 | 2336 |
| CHKov2 | DRSC14262 | 80720 | 1.17e5 | – | 1229 | 2877 |
| CG13721 | DRSC08330 | 68658 | 62691 | – | 6752 | 5356 |
| Dysb | DRSC10730 | 1.22e5 | – | – | 1792 | 2615 |
| CG8388 | DRSC07157 | 81735 | 49403 | – | 2157 | 3428 |
| ppan | DRSC17030 | 4.28e5 (active) | 88928 | – | 35184 | 433 |
| Ugt303A1 | DRSC15641 | 70146 | 83112 | – | 2162 | 2038 |
| HP1e | DRSC16379 | 78237 | 1.19e5 | – | 2320 | 2749 |
| CoRest | DRSC19881 | 1.46e5 | 1.39e5 | – | 2051 | 2885 |
| LanA | DRSC11207 | 81610 | 92208 | – | 3467 | 3218 |
| CAH8 | DRSC15784 | 9.49e5 | 2.11e5 | – | 44060 | 4888 |
| CG17974 | DRSC04299 | 1.02e5 | 1.08e5 | – | 2529 | 7896 |
| Bx42 | DRSC17743 | 21265 (active) | 23990 | – | 949 | 1364 |
| Prp3 | DRSC10912 | 58849 (active) | 55440 | – | 2891 | 2280 |
| Ir94h | DRSC15232 | 4.90e5 | 84310 | – | 27379 | 2258 |
| CG10359 | DRSC08156 | 62576 | 61220 | – | 2984 | 2102 |
| Argl + CG9515 | DRSC03243 | 87968 | 87307 | – | 2964 | 3307 |
| Argl + CG9515 | DRSC03245 | 1.13e5 | 53962 | – | 3120 | 6711 |
| Br140 | DRSC06755 | 83557 | 49019 | – | 3034 | 2228 |
| svp | DRSC12899 | 43911 | 2.86e5 | – | 10491 | 5740 |
| svp | DRSC15311 | 27232 (active) | 25639 | – | 1370 | 1305 |
| svp | DRSC17075 | 1.34e5 | 6.57e5 | 1.88e5 | 4264 | 5179 |
| CG7328 | DRSC10812 | 61943 | 99117 | – | 1330 | 2916 |
| CG1792 | DRSC15290 | 84775 | 1.43e5 | – | 2896 | 5936 |
